Paper PMC10709431
These are yes or no findings as the source states them, for the method shown. In cells and extracts the contact can be indirect. Some binding calls cover weakened binding; strength is not graded here. Where a sequence is shown, tags or fusion partners need not be part of it.

The chains behind the UniProt entries cited, without tags or fusion partners.
UniProt Q13131: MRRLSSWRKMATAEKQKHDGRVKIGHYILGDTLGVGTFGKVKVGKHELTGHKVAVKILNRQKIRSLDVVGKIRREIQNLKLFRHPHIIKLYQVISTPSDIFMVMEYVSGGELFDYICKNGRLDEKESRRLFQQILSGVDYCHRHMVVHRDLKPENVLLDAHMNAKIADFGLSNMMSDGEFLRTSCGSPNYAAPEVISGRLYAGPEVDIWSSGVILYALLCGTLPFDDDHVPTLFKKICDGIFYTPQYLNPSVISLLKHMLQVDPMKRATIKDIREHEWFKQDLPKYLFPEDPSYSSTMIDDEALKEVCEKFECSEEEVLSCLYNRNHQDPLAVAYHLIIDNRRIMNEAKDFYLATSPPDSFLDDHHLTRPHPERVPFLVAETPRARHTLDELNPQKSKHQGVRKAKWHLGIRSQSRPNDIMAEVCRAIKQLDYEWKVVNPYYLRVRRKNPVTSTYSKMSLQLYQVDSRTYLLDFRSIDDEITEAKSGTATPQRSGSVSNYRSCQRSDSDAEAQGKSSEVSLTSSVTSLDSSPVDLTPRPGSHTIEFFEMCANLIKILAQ

B1: glucosamine-phosphate N-acetyltransferase 1 (GNPNAT1) (enzyme, UniProt Q96EK6 1-184)
chain: MKPDETPMFDPSLLKEVDWSQNTATFSPAISPTHPGEGLVLRPLCTADLNRGFFKVLGQLTETGVVSPEQFMKSFEHMKKSGDYYVTVVEDVTLGQIVATATLIIEHKFIHSCAKRGRVEDVVVSDECRGKQLGKLLLSTLTLLSKKLNCYKITLECLPQNVGFYKKFGYTVSEENYMCRRFLK
B2: phosphomannose isomerase (PMI) (enzyme, UniProt P34949 1-423)
chain: MAAPRVFPLSCAVQQYAWGKMGSNSEVARLLASSDPLAQIAEDKPYAELWMGTHPRGDAKILDNRISQKTLSQWIAENQDSLGSKVKDTFNGNLPFLFKVLSVETPLSIQAHPNKELAEKLHLQAPQHYPDANHKPEMAIALTPFQGLCGFRPVEEIVTFLKKVPEFQFLIGDEAATHLKQTMSHDSQAVASSLQSCFSHLMKSEKKVVVEQLNLLVKRISQQAAAGNNMEDIFGELLLQLHQQYPGDIGCFAIYFLNLLTLKPGEAMFLEANVPHAYLKGDCVECMACSDNTVRAGLTPKFIDVPTLCEMLSYTPSSSKDRLFLPTRSQEDPYLSIYDPPVPDFTIMKTEVPGSVTEYKVLALDSASILLMVQGTVIASTPTTQTPIPLQRGGVLFIGANESVSLKLTEPKDLLIFRACCLL

Target: AMPKα1 in experiments shown only in supplementary figures (endogenous or transfected not stated) (UniProt Q13131)
Assay: co-IP; co-IP of the AMPK complex (Fig. S4n); bait and constructs not shown; A375 cells with or without MMAE in Fig. S4o

Binder	binding
B1	binds
B2	binds
